The assay addresses FADD (Fas-Associated protein with death domain) (human (endogenous in platelets)) (UniProt Q13158). Kind of assay: co-IP; antibody (4 ug) on magnetic Dynabeads Protein A/G incubated with platelet concentrate lysate (500 ug protein) in PBS for 2 h at RT; eluted and analysed by Western blot; IgG controls and input. (In western blotting, separated proteins are transferred to a membrane and probed.)

Sequences of proteins named here, by UniProt entry; tags and fusion partners are left off.
UniProt Q13158: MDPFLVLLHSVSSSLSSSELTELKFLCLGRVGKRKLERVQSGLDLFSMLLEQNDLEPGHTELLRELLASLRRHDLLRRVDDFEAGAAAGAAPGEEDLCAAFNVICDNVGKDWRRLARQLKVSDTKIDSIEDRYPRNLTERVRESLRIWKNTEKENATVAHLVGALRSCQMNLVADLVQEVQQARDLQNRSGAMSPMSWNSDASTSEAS
UniProt Q99497: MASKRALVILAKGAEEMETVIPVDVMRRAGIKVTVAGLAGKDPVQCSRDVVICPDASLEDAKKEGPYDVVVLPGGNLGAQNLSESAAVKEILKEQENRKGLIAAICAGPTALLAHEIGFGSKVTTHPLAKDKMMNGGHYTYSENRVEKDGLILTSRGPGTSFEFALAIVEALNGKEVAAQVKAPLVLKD

No constants are given. Whether binding was seen depends on the method and setting. Binding seen in cells or lysates may run through a third protein. Some entries that bind do so weakly or less than the wild type.

On to “DJ-1 (Deglycase 1) (from UniProt Q99497 1-189)”, for which the binding entry is recorded as “binds”.

The values above are taken from PMC7799768.
